{"sequences": {"note": "Protein sequences, listed by entry. Tags and fused reporters are not part of them. Lines headed by an entry give the natural chain unless they say otherwise; changes in a name come on top. Residues count along the entry.", "UniProt Q96QE4, 28-905, stated change not applied": "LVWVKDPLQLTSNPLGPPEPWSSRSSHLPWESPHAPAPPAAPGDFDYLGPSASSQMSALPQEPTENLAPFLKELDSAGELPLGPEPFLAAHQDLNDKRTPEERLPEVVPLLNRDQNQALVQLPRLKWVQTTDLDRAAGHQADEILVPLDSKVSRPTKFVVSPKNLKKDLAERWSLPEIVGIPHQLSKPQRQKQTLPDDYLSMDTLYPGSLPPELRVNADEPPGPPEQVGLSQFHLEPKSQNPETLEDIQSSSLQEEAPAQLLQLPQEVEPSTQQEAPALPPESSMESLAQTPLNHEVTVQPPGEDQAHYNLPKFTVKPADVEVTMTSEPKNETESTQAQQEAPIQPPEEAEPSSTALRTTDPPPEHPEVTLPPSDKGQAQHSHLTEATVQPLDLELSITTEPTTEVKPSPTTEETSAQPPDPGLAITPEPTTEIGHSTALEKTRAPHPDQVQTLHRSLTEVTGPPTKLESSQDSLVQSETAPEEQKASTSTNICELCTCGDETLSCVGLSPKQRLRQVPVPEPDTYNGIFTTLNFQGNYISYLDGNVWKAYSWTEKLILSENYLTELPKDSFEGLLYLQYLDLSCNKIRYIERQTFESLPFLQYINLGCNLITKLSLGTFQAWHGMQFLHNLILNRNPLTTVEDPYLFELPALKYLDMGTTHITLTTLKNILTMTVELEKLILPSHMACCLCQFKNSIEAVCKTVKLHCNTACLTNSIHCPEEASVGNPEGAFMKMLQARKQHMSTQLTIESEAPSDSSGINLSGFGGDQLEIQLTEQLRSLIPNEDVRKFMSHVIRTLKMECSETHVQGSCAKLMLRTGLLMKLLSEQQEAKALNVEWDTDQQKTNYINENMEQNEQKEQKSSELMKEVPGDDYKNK"}, "source": "paper doi:10.1101/2022.12.21.521423", "about": "(bioRxiv, 2022)", "target": "LRRC37B_ECTO-Fc (human) (UniProt Q96QE4)", "assay": "affinity purification with mass spectrometry", "note": "Results are given in words; binding and its absence hold for the method and conditions named. Binding seen in cells or lysates may run through a third protein. A yes stands for co-enrichment or nearness to the bait. Other partners may have been found.", "data": [{"substance": "SCN1B of rat brain (from UniProt Q00954 19-218)", "values": [{"measurement": "binding", "value": "binds"}]}]}
